Experimental findings from article PMC3390794 are described below.

Chains of the proteins cited; added tags and fusions are not shown.
UniProt O15105: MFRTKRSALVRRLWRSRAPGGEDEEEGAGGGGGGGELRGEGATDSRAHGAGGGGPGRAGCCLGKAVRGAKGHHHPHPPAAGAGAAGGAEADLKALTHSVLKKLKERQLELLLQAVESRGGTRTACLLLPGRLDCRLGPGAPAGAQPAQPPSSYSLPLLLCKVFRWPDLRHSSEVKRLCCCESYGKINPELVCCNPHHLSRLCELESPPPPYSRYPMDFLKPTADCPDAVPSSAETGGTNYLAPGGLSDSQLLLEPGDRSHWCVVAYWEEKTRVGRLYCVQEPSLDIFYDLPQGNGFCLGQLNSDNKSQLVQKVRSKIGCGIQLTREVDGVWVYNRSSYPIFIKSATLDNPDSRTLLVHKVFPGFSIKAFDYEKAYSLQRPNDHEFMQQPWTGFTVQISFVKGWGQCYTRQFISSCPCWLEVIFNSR
UniProt Q15796: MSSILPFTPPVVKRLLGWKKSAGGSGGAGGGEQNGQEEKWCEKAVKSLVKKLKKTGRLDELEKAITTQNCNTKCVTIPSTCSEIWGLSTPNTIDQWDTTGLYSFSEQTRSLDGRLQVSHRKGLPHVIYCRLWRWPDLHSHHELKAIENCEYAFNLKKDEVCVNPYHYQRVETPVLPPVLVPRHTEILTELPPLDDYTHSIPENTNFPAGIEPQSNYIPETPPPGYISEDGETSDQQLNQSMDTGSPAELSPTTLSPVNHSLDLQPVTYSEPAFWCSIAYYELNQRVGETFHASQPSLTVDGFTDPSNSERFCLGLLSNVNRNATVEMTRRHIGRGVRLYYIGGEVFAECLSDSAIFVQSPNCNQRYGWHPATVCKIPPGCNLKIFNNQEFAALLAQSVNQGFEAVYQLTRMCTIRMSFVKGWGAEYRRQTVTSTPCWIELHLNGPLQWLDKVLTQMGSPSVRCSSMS
UniProt Q99717: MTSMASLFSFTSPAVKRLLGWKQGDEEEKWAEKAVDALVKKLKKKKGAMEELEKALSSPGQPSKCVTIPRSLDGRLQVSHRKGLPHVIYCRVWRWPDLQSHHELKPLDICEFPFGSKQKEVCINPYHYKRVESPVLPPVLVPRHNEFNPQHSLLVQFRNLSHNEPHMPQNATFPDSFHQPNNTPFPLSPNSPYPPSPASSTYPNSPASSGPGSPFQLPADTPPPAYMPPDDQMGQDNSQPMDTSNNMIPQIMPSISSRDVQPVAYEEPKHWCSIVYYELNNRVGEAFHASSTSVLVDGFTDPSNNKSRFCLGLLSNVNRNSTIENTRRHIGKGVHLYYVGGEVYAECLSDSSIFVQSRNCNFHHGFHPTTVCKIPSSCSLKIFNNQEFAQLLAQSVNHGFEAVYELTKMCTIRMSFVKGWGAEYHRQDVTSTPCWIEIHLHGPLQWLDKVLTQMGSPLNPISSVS
UniProt Q93008: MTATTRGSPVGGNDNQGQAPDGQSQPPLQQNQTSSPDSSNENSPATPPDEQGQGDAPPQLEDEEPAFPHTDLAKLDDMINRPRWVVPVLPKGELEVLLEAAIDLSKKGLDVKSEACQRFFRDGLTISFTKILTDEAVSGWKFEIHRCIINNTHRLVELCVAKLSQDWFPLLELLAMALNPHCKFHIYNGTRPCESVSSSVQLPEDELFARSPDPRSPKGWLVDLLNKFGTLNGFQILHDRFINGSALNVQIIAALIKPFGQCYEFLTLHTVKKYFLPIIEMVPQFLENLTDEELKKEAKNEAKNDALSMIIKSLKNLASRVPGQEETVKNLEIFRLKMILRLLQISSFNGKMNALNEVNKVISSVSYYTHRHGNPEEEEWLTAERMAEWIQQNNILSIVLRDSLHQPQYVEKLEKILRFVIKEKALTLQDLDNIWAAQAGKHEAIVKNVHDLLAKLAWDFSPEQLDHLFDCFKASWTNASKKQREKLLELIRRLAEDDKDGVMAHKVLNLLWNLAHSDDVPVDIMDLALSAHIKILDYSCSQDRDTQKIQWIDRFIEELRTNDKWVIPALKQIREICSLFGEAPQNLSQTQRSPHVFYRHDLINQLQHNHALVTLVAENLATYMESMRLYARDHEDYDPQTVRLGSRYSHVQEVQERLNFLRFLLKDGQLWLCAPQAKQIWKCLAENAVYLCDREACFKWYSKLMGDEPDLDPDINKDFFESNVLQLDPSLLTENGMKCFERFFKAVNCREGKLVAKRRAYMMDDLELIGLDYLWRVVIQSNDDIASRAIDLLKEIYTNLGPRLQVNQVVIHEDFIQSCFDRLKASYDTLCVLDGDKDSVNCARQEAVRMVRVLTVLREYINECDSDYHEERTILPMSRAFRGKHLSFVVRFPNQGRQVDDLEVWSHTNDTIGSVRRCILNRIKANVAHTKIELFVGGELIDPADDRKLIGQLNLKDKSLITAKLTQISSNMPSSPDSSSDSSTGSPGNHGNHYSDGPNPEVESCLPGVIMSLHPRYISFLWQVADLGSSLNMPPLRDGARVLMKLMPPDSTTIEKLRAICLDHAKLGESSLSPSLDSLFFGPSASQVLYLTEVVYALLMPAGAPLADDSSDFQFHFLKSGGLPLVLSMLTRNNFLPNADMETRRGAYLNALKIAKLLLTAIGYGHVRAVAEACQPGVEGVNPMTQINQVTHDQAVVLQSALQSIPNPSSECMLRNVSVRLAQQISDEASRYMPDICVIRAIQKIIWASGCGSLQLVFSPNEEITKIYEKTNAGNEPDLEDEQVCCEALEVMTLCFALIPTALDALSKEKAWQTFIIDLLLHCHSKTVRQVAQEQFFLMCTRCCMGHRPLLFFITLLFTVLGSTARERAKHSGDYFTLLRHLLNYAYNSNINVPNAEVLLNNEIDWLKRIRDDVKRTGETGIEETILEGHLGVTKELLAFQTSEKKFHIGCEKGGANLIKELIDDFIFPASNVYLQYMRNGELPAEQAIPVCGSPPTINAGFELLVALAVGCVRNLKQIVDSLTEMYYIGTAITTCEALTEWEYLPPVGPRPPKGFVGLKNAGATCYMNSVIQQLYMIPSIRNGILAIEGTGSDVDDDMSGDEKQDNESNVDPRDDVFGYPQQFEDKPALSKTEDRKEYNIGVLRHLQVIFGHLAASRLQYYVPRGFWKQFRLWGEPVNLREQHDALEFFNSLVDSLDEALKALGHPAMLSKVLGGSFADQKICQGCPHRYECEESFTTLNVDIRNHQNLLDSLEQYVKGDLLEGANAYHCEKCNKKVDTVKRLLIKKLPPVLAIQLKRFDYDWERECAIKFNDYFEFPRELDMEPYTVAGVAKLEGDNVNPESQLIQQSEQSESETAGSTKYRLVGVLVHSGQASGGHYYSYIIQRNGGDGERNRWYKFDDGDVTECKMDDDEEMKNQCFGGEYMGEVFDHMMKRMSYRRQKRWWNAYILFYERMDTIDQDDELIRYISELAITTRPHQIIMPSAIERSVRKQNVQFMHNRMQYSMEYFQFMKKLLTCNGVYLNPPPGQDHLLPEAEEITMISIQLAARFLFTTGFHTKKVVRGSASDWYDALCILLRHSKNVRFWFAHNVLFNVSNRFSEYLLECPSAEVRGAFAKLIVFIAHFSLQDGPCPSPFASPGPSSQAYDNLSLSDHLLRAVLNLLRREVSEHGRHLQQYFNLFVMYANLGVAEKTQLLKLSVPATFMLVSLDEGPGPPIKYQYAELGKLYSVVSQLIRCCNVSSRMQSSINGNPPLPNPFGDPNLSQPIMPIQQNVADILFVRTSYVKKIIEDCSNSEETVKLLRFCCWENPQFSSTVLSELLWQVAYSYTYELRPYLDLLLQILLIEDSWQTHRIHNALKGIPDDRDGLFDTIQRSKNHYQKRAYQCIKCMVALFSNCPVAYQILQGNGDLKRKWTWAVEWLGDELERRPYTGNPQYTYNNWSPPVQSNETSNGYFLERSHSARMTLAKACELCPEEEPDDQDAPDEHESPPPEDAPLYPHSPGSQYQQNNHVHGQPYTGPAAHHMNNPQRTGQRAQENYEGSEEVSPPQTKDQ
UniProt Q9HAU4: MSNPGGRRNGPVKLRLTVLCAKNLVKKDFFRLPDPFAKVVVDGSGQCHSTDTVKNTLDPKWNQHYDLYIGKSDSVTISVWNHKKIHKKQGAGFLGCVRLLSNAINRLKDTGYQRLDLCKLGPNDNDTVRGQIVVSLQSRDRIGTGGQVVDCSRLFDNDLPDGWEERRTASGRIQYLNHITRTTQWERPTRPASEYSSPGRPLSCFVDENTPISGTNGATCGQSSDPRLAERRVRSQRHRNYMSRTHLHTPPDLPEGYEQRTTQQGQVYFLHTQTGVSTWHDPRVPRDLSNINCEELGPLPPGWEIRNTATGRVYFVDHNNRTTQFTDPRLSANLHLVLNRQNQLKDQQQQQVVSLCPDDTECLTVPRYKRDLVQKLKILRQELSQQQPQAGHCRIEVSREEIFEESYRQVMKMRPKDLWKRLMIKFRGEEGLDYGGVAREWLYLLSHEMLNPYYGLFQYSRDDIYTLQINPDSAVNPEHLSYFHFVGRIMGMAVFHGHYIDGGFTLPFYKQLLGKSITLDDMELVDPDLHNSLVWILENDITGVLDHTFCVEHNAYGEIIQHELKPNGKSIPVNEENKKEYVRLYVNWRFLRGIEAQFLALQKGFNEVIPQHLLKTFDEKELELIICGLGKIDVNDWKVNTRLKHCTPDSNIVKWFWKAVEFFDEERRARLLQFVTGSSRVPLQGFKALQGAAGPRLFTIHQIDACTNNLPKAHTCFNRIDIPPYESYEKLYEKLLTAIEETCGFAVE
UniProt Q9HCE7: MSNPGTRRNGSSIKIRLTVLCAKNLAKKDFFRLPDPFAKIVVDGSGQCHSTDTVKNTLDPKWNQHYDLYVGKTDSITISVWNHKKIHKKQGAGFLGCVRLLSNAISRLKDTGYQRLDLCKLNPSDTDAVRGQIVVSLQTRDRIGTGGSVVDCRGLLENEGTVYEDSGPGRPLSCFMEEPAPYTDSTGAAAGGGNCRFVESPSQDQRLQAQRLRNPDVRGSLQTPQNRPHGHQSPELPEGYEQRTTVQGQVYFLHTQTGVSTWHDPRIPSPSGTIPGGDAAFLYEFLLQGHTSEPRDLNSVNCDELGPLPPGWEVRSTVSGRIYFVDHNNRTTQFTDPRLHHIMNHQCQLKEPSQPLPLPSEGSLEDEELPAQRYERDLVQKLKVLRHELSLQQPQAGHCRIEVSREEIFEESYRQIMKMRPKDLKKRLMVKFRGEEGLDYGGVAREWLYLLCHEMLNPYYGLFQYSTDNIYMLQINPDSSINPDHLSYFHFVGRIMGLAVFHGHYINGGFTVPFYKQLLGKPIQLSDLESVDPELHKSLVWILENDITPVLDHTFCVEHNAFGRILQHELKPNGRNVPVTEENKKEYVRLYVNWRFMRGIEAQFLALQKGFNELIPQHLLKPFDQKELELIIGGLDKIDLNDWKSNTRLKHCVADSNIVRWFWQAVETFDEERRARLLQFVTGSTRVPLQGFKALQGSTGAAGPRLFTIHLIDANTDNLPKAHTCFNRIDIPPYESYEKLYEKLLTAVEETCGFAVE
UniProt P51784: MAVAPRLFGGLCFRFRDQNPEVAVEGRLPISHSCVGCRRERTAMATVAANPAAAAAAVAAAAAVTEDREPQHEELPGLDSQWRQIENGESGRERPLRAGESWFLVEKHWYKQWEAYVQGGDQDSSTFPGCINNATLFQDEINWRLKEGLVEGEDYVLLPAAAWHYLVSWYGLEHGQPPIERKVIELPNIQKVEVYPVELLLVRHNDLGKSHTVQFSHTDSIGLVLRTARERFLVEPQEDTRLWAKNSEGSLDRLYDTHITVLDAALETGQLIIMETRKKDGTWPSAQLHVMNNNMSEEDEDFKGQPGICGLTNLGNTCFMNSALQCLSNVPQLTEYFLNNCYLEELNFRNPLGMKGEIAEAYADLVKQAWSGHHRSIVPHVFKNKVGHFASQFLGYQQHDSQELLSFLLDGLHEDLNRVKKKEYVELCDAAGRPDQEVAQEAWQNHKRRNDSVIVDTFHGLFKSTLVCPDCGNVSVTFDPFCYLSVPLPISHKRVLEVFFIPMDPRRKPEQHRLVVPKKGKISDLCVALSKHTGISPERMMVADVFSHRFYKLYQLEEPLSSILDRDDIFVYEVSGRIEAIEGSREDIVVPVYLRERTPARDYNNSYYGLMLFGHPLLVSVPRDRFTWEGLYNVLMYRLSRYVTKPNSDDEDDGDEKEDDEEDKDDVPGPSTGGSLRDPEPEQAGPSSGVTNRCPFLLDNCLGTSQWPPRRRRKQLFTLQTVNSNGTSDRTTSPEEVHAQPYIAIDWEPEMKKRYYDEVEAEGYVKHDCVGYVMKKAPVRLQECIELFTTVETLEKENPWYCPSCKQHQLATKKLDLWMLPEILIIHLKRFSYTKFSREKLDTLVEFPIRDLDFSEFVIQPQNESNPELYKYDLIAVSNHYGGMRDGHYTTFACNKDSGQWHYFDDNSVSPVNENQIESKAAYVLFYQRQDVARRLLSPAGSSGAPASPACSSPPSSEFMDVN

These are yes or no findings as the source states them, for the method shown. Binding seen in cells or lysates may run through a third protein. These calls come from enrichment with a bait or labelling near it, and not all partners need be listed. No binding means not detected with the bait.

Among the targets are GFP-SMAD7 (human) (UniProt O15105); GFP-tagged SMAD1 (human) (UniProt Q15797); GFP-tagged SMAD2 (human) (UniProt Q15796); GFP-tagged SMAD3 (human) (UniProt P84022); GFP-tagged SMAD4 (human) (UniProt Q13485); GFP-tagged SMAD5 (UniProt Q99717).
What all share (test): affinity purification with mass spectrometry; anti-GFP IPs from extracts of HEK293 cells expressing GFP-SMAD7 (GFP alone as control; similar assays with GFP-tagged SMADs1–5); SDS–PAGE, gel pieces digested with trypsin, LC–MS–MS

In the case of “USP9X (from UniProt Q93008 1-2554) (enzyme)”, the binding entry with GFP-SMAD7 (human) was “no binding”.
For the molecule “SMURF2 (from UniProt Q9HAU4 1-748) (enzyme)”, the binding result with GFP-SMAD7 (human) was “binds”.
Same read-out and setting: under “USP5 (from UniProt P45974 1-858) (enzyme)” stands “no binding”.
Same read-out and setting: the value for “USP7 (from UniProt Q93009 1-1102) (enzyme)” was “no binding”; that for “NEDD4 (from UniProt P46934 1-1319) (enzyme)” was “binds”; that for “SMURF1 (from UniProt Q9HCE7 1-757) (enzyme)” was “binds”.
For the molecule “endogenous USP11 (from UniProt P51784 1-963) (enzyme)”, the binding result is reported as “binds” in the test with GFP-SMAD7 (human); “no binding” with GFP-tagged SMAD1 (human); “no binding” with GFP-tagged SMAD2 (human); “no binding” with GFP-tagged SMAD3 (human); “no binding” with GFP-tagged SMAD4 (human); “no binding” with GFP-tagged SMAD5.

B1: USP15 (enzyme, UniProt Q9Y4E8 1-981)
chain: MAEGGAADLDTQRSDIATLLKTSLRKGDTWYLVDSRWFKQWKKYVGFDSWDKYQMGDQNVYPGPIDNSGLLKDGDAQSLKEHLIDELDYILLPTEGWNKLVSWYTLMEGQEPIARKVVEQGMFVKHCKVEVYLTELKLCENGNMNNVVTRRFSKADTIDTIEKEIRKIFSIPDEKETRLWNKYMSNTFEPLNKPDSTIQDAGLYQGQVLVIEQKNEDGTWPRGPSTPKSPGASNFSTLPKISPSSLSNNYNNMNNRNVKNSNYCLPSYTAYKNYDYSEPGRNNEQPGLCGLSNLGNTCFMNSAIQCLSNTPPLTEYFLNDKYQEELNFDNPLGMRGEIAKSYAELIKQMWSGKFSYVTPRAFKTQVGRFAPQFSGYQQQDCQELLAFLLDGLHEDLNRIRKKPYIQLKDADGRPDKVVAEEAWENHLKRNDSIIVDIFHGLFKSTLVCPECAKISVTFDPFCYLTLPLPMKKERTLEVYLVRMDPLTKPMQYKVVVPKIGNILDLCTALSALSGIPADKMIVTDIYNHRFHRIFAMDENLSSIMERDDIYVFEININRTEDTEHVIIPVCLREKFRHSSYTHHTGSSLFGQPFLMAVPRNNTEDKLYNLLLLRMCRYVKISTETEETEGSLHCCKDQNINGNGPNGIHEEGSPSEMETDEPDDESSQDQELPSENENSQSEDSVGGDNDSENGLCTEDTCKGQLTGHKKRLFTFQFNNLGNTDINYIKDDTRHIRFDDRQLRLDERSFLALDWDPDLKKRYFDENAAEDFEKHESVEYKPPKKPFVKLKDCIELFTTKEKLGAEDPWYCPNCKEHQQATKKLDLWSLPPVLVVHLKRFSYSRYMRDKLDTLVDFPINDLDMSEFLINPNAGPCRYNLIAVSNHYGGMGGGHYTAFAKNKDDGKWYYFDDSSVSTASEDQIVSKAAYVLFYQRQDTFSGTGFFPLDRETKGASAATGIPLESDEDSNDNDNDIENENCMHTN
For the molecule B1, the binding result is given as “binds” with GFP-SMAD7 (human); “no binding” in the test with GFP-tagged SMAD1 (human); “no binding” in the test with GFP-tagged SMAD2 (human); “no binding” in the test with GFP-tagged SMAD3 (human); “no binding” in the test with GFP-tagged SMAD4 (human); “no binding” in the test with GFP-tagged SMAD5.
